Reference: paper PMC12331980
These are yes or no findings as the source states them, for the method shown. Binding seen in cells or lysates may run through a third protein. Some entries that bind do so weakly or less than the wild type.

Sequences of proteins named here, by UniProt entry; tags and fusion partners are left off.
UniProt Q5VTR2: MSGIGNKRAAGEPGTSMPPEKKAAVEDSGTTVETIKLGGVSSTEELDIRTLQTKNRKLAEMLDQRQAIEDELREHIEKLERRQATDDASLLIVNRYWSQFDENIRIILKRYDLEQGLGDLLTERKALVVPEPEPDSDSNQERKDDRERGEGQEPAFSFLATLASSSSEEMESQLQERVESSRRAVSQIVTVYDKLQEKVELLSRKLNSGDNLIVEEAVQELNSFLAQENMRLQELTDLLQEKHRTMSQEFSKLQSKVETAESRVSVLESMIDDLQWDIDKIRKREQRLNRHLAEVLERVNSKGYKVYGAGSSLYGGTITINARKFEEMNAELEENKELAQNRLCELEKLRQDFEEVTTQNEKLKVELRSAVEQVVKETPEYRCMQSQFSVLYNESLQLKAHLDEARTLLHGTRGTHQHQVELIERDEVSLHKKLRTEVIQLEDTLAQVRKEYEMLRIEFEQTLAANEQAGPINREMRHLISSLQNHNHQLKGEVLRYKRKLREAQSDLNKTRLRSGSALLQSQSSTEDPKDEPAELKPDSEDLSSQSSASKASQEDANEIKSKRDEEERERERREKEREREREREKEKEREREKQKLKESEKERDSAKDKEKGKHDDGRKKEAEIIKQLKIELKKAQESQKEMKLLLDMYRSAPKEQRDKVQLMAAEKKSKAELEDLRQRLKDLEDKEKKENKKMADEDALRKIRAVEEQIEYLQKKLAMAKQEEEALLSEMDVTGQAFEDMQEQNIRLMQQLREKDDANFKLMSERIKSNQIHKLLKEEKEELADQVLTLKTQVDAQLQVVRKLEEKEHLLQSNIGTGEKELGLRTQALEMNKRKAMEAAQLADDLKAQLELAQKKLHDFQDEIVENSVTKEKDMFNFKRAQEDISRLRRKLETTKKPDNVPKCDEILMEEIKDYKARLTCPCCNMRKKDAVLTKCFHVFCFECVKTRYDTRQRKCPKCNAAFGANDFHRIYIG
UniProt P27694: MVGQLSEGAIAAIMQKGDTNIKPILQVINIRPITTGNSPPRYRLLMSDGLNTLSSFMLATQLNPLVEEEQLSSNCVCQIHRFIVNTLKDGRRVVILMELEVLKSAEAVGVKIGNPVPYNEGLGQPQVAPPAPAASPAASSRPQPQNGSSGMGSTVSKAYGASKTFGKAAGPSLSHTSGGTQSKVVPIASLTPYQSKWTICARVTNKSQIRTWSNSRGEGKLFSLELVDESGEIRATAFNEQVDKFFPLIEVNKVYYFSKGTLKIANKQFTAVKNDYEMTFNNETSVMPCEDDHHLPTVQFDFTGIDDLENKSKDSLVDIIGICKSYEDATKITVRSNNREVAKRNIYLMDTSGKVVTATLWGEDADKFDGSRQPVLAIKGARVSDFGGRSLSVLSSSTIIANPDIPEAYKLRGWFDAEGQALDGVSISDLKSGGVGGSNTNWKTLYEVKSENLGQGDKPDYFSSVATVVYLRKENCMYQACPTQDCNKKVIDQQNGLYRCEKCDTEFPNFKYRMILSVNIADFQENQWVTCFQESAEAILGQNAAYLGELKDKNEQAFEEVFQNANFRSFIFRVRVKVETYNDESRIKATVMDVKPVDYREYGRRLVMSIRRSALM

Molecular target: RNF20 (human (endogenous in U2OS or HeLa)) (UniProt Q5VTR2)
Test: co-IP; endogenous RNF20 precipitated with rabbit polyclonal anti-RNF20 antibody and protein G beads from 2 mg lysate (RIPA buffer without SDS, protease and phosphatase inhibitors), overnight at 4 °C; mock or HU-treated cells; western blot

binding: binds
Substance: RPA70 (from UniProt P27694 1-616)
